The values below are quoted from earlier work in patent publication US20050171374A1, “Preparation of levulinic acid esters from alpha-angelica lactone and olefins; use of ester compositions as fuel additives” (priority 2004, published 2005).

Where a name gives a salt, the structure may show the parent alone.

The conditions of this data set: references [3], [4].

In the case of `COC(C)(C)C` [MTBE, methyl tertiary-butyl ether, reference compound], the “Blending Octan No R + M/2 Reported” value is 108[3]. Turning to `COC(=O)CCC(C)=O` [Methyl Levulinate], the “Blending Octan No R + M/2 Reported” value was 106.5[4]. `CCO` [Ethanol, reference compound]: the “Blending Octan No R + M/2 Reported” value is 100[3]. As to `CC(=O)CCC(=O)OC(C)C` [Isopropyl Levulinate], the “Blending Octan No R + M/2 Reported” value is 105[4].

In the case of `COC=O` [Methyl Formate], the “Blending Octan No R + M/2 Reported” value is 101.5[4]. With `CCOC(=O)CCC(C)=O` [Ethyl Levulinate], the “Blending Octan No R + M/2 Reported” value is 107.5[4]. `CCOC=O` [Ethyl Formate]: the “Blending Octan No R + M/2 Reported” value was 102.5[4]. For the compound `CC(=O)CCC(=O)OCC(C)C` [Isobutyl Levulinate], the “Blending Octan No R + M/2 Reported” value was 102.5[4]. In the case of `CCC(C)OC(=O)CCC(C)=O` (stereo not drawn) [Sec-Butyl Levulinate], the “Blending Octan No R + M/2 Reported” value was 102.5[4].
